# No constants are given. Whether binding was seen depends on the method and setting. Binding seen in cells or lysates may run through a third protein. A yes stands for co-enrichment or nearness to the bait. Other partners may have been found.
# T1: YAF9 (S. pombe) (S. pombe) (UniProt Q10319)
# T1 sequence: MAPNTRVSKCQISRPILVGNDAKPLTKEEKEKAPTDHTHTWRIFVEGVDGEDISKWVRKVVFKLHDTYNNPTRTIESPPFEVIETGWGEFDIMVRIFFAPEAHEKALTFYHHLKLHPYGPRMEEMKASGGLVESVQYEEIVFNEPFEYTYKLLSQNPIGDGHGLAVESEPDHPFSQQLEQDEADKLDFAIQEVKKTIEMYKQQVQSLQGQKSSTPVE
# T2: SWC4 (S. pombe) (S. pombe) (UniProt O14308)
# T2 sequence: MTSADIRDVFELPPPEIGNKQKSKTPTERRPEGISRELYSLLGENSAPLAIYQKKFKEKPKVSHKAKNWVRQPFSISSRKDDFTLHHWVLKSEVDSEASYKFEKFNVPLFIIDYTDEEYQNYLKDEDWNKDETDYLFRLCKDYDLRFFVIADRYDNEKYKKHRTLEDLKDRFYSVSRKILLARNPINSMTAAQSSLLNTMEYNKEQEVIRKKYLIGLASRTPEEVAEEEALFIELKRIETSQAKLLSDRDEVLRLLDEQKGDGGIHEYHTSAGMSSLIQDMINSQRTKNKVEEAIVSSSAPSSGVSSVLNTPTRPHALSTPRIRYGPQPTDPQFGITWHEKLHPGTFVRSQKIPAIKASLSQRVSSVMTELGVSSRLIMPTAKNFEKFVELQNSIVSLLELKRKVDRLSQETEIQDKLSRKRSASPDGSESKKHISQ
# T3: Sp_Alp13p (S. pombe) (UniProt O13953)
# T3 sequence: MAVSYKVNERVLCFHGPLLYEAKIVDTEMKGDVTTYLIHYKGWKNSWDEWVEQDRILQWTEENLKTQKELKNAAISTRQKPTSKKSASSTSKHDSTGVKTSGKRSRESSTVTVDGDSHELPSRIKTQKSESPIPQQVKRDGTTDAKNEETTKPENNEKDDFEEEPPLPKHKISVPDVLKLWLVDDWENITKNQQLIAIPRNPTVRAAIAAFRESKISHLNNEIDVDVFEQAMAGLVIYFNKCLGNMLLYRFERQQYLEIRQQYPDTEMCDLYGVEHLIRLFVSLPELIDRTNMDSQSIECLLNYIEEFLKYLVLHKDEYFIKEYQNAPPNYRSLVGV
# T4: Clr6p (S. pombe) (S. pombe) (UniProt O59702)
# T4 sequence: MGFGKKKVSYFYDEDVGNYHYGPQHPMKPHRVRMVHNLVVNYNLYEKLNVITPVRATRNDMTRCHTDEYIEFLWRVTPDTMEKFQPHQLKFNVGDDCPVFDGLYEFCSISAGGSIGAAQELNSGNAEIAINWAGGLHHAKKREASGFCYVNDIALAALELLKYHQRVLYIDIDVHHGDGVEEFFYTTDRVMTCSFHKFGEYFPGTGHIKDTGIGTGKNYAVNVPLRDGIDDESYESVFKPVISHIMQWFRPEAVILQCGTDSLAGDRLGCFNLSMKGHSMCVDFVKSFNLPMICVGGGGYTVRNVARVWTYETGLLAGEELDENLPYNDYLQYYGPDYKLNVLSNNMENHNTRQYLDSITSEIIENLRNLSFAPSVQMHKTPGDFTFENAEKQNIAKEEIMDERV
# B1: EAF7 (S. pombe) (protein, UniProt O42924 1-272)
# chain: MSSRGTRSSTAAEQKRQEDVNKESNMNDSVTEWSVLEETLLLKAICRGLRPVGIEKNFYMIGILREIRDGCKRSTIKAQDVWNKLGTLYNLKEFEELEAPGNEEVKAKEKRIKSPDVKDFKLPKDILKVKEKSEKPLETSQKVEIETVETKPGEPEVKQETNLQKEKKESKVKLESKEEKISRNLRSSSRSISPVTEQPQSPKIQPVIPEKKEKSEKKESSMTLRKRSVSPSSQNTARSPKRMATEPIEPASSPAASNQAIRRSSRSRRPPT
# B2: Sp_Mst1p (protein, UniProt O94446 1-463)
# chain: MSNDVDDESKIETKSYEAKDIVYKSKVFAFKDGEYRKAEILMIQKRTRGVVYYVHYNDYNKRLDEWITIDNIDLSKGIEYPPPEKPKKAHGKGKSSKRPKAVDRRRSITAPSKTEPSTPSTEKPEPSTPSGESDHGSNAGNESLPLLEEDHKPESLSKEQEVERLRFSGSMVQNPHEIARIRNINKICIGDHEIEPWYFSPYPKEFSEVDIVYICSFCFCYYGSERQFQRHREKCTLQHPPGNEIYRDDYISFFEIDGRKQRTWCRNICLLSKLFLDHKMLYYDVDPFLFYCMCRRDEYGCHLVGYFSKEKESSENYNLACILTLPQYQRHGYGKLLIQFSYELTKREHKHGSPEKPLSDLGLISYRAYWAEQIINLVLGMRTETTIDELANKTSMTTNDVLHTLQALNMLKYYKGQFIICISDGIEQQYERLKNKKRRRINGDLLADWQPPVFHPSQLRFGW
# B3: Sp_Bdc1 (protein, UniProt O74350 1-299)
# chain: MNIAQEVAVLQYLDIQQENPNAPNEELFNRTAESSLLLEPIEQDQLKDLVEEWMHDSNKSDSKLLSNQVSQNDNDARKNLRKRLRNDVLKDLAEEIQGCEKKLESLYEEVAKAKAKAVEDQLALEEADKEAKKAKTEAPVEAANKSLRSRKKTPEIAAPANIEPEVAPTTKTPKKRAALSNEEKQSLKKFQSAMLPMLDNISNHRFGAPFSHPVNRKEAPDYDSLVYKPQDLRTLKNMIKEGNITEVDELYREVLRIFANCKMYNGSDPANAMSIWGDECFRYTEELFDIYRQASTRSQ
# B4: VID21 (S. pombe) (protein, UniProt O59773 1-994)
# chain: MKQKETKTSQIALVDGEKLSITDSFASLFTLDEEEENDSVDNEEIKLTKEKHEKLLLLFWLHCKFPNGLEWLHSSSDLLPEQVSEWFNFYQKYRFKRGRNFNLSARESVTPIVEEPIVPEEPDNLEGVSEETPLKETSLELSEEEIITSKSPIPSPETIHKNIDVEEKETIEPTTPVKEVETTAHAEEEKGPLTPDSEYAARQLTEELANKSSQEEGVDKQLRVVEATEKEHEEDGNEENVTVTKPVEVATDQVESKEVKKKEVSETTEPTAPPVTVAEVLEIEDKVPKVDEVEEVHSPEAKVTENDVENVQSGIDIEKTIQLLNNQEIPSEQQIISVDKATESPVQEVAVDVNEKPVDEIVEPSKLQMENKLPSEKSPTIDRTGVEAPLFELSVSMPLTLIPPSKFSEPVKPELSSEAWLLRTEMSPLHLRLKNAHKYVLSDNWSHAYREEIVRQSLHHLTVAKEKGIWSFRQPKRQNEMPRLKTHRDYVLDEMQWMSIDFSQERKWKIILAHRMANWVMDYHQASDKCTVCTPASLSKNKKPYMQENEHQKDSHEETFNEQIVSHFNLNDNNNNKVLSIPRDSLQFYNAVFSDDIFVTTNSEQIQNCVLNVPMYGPPTENNEYCEEISEKYPITPVSRFAYAKTKLKSTCAKASRKRLFNQLELSPPESFMEKKARSDENQLDGNKIKDDNQKLSSVGTFSVRPPYPPSSKDIRPEAPWLPEEDELLLLLLRRYSFNWEFVASRLTPPGLYIPLAEKRTAWDCFERWIQVDPRAANVQLTGSHARLAQQKLDESLRHSDKVSQHLSLRDEGTPNHLIKHNSYFLLPTVSRHYRPITIFEAIRKILKKREFAKKPTMTKRAIAPSAASTEKLPPVPSPLELSRLKSEREAQIQQIQAQRNFAQLQSQNRALRPQNAAVAAGAQQHNQQLAAFQAVAASQNSSNNSSAGVSPIAGRMVPRLQPYAVSSSLKLTPEQIHQLQQRKQTVPTTERTQ
# B5: SWC4 (S. pombe) (protein, UniProt O14308 1-437)
# chain: T2 sequence
# B6: EPL1 (S. pombe) (protein, UniProt Q9UU94 1-557)
# chain: MSSVSKNARAYRQRKVGIKTVMPIYFERDIPDFDEEASLQRTVPLVESGVEKEEEEEKHLQQVINEAHEAIVRGSEKKLIIPTREAKNIGIIDKYYKKNFILPKTLIRFSLTVEECTNPEYCMDEHDTEYFLKLKQAQPSLSKFSELDFEIVMQTFEEEINQNQPFLSMDTSQILPLSELITSFELKDVLYLKPLASQVYPYWRERRISKGGLPIMAKAQVGDDKDDDDPYVCFRRREIRQARKTRRSDAQSYDRLRRLRQSMETSLQLLEQVYKREQKKLQALEDDYAIFQKRCLVKKLKRTLNIKDSDELLINPKRRPIEVKPAAPVPTPAPPVKTSPHPASYRPQPTRNVEVRPLLMLDDVQSAQITQFQIRLQQRLTKKEQLDRNWVDLLETPSTVIHTNYPDSFYRNIIPYYSGKETKQSHNQLSIPSSTPSTPLSDNGPTYSTPHSSLSNFNTCDSLSFSSNNSLYGYSTLLHPRNPICVRQRIGRGGRLMLDRTRALPVHRLSKPKSRVEDRWLFDIPFDADDTIILDDESDASIMFRASLLNDDMGTQS
# B7: PAP1 (S. pombe) (protein, UniProt Q01663 1-552)
# chain: MSGQTETLSSTSNIPIAKAEPEQSADFSASHKKRGPVSDRSSRRTSSEEVDLMPNVDDEVDGDVKPKKIGRKNSDQEPSSKRKAQNRAAQRAFRKRKEDHLKALETQVVTLKELHSSTTLENDQLRQKVRQLEEELRILKDGSFTFEMSLPHRNPSLSSLPTTGFSSNFAHMKDGISPQSNLHLSPNSIEKPNMHQNVLHNDRSADNLNHRYQVPPTLVDSNSAQGTLSPETPSSSDSPSNLYLNYPKRKSITHLHHDCSALSNGENGEDVADGKQFCQKLSTACGSIACSMLTKTTPHRASVDILSNLHESTVSPPMADESVQRSSEVSKSIPNVELSLNVNQQFVSPFGGTDSFPLPTDTGLDSLFEPDSAIENSHLKNVVMEPELFQAWREPAESLDKEFFNDEGEIDDVFHNYFHNSNENGDLITNSLHGLDFLENANESFPEQMYPFIKHNKDYISNHPDEVPPDGLPQKGKHDTSSQMPSENEIVPAKERAYLSCPKVWSKIINHPRFESFDIDDLCSKLKNKAKCSSSGVLLDERDVEAALNQFN
# B8: Sp_Png2 (protein, UniProt O74736 1-305)
# chain: MGTSGIEIFAALNDFTDAIVSVPESVCGKFTSLKEIDAQVRDIRQNVIQEIGVVLKNEKNDELSGEERCERLQKTLKEILPYSDSKICLATDAMNNIKSCIDRLDAGFEYVELEIPQQLRLGYPDDRALMNYHSTVTPQTSERRRETRRHQNNQHSQQYSSQERSSSYNNFEDASSPQSSYHTPTKRRKNAVPRKSSSPPLSSTKHAPQSTERRPVRRSESRLKQTNGEPLVKHDTLDSSDISREGEQLYCYCQQVSYGQMIGCDNENCKREWFHLPCVGLVEPPKGIWYCKECEELAKSSESRQ
# Biological target: T1, YAF9 (S. pombe) (S. pombe)
# Assay: affinity purification with mass spectrometry; TAP of baits TAP-tagged at their genes from S. pombe extracts; eluates on 6-18% gels, Coomassie, bands and slices identified by MALDI peptide mapping and LC-MS/MS; common background removed, A-index cut-off 1.75
row,binding,Binder
1,binds,B1
2,binds,B2
3,binds,B3
4,binds,B4
5,binds,B5
6,binds,B6
7,binds,B7

# Biological target: T2, SWC4 (S. pombe) (S. pombe)
# Assay: as above
row,binding,Binder
1,binds,B1
2,binds,B2
3,binds,B3
4,binds,B4
5,binds,B6
6,binds,B7

# Biological target: T3, Sp_Alp13p (S. pombe)
# Assay: as above
row,binding,Binder
1,binds,B1
2,binds,B2
3,binds,B3
4,binds,B4
5,binds,B5
6,binds,B6
7,binds,B7

# Biological target: T4, Clr6p (S. pombe) (S. pombe)
# Assay: as above
row,binding,Binder
1,binds,B8
